# Laboratory results as given in paper PMC3681974.
# Chains of the proteins cited; added tags and fusions are not shown. Lines headed by an entry give the natural chain unless they say otherwise; changes in a name come on top. Residues count along the entry.
# UniProt F1MGS8: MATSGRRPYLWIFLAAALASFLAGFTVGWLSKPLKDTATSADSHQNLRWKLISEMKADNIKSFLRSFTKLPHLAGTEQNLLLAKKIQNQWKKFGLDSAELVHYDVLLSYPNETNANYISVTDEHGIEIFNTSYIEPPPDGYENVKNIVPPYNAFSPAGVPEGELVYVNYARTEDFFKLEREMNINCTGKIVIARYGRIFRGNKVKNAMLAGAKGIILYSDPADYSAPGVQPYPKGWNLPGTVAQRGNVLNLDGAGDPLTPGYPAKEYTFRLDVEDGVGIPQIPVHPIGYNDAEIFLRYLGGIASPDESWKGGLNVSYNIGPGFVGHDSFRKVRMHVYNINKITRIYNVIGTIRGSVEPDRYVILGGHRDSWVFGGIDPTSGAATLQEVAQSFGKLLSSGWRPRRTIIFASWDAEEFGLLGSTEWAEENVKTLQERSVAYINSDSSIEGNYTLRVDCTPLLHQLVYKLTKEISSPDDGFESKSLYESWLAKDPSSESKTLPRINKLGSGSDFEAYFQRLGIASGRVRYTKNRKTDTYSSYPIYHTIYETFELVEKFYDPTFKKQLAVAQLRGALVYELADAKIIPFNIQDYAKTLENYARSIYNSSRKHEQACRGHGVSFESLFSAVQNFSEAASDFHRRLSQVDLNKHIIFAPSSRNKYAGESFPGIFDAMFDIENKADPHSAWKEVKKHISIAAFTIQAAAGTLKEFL
# UniProt P81425: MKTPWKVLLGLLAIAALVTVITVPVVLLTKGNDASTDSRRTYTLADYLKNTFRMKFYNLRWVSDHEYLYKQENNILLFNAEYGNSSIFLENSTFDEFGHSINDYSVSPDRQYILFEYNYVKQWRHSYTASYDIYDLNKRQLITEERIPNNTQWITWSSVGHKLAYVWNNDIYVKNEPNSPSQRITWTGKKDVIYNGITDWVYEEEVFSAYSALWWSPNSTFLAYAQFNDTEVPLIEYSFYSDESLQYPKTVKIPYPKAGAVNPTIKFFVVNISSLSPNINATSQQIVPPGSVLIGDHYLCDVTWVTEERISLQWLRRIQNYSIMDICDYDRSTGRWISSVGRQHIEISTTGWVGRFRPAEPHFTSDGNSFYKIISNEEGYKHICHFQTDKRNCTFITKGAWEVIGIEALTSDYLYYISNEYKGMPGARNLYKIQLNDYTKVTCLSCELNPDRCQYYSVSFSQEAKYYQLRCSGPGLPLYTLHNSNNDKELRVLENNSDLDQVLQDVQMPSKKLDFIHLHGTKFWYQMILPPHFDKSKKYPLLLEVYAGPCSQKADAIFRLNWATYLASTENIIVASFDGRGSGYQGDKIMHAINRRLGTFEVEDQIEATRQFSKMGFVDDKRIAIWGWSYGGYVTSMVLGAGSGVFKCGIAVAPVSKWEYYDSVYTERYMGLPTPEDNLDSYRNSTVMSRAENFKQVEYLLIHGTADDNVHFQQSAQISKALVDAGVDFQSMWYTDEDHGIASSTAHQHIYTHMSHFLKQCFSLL
# UniProt P17697, residues 20-439: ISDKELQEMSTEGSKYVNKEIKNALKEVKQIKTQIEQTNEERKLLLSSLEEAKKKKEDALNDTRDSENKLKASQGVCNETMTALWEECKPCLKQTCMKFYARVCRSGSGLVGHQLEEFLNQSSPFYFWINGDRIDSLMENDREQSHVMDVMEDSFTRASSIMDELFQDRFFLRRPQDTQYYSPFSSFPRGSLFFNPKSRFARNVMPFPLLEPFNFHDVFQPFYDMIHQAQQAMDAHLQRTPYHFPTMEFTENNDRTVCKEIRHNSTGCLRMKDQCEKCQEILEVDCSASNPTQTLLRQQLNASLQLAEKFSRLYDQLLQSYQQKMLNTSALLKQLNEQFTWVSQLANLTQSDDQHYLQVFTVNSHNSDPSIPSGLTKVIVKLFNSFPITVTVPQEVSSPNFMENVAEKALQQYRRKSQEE
# These are yes or no findings as the source states them, for the method shown. Binding seen in cells or lysates may run through a third protein. These calls come from enrichment with a bait or labelling near it, and not all partners need be listed.
# T1: Tetraspanin CD9 (bovine (endogenous in cauda epididymal fluid microvesicles)) (UniProt P30932)
# T1 sequence: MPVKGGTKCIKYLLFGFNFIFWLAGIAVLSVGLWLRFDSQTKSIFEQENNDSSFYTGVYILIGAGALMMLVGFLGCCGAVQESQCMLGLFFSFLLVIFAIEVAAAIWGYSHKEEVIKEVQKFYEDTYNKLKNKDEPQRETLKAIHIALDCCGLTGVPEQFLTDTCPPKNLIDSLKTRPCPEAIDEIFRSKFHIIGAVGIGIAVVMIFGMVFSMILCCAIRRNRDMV
# Molecular target: T1, Tetraspanin CD9 (bovine (endogenous in cauda epididymal fluid microvesicles))
# Assay: affinity purification with mass spectrometry; cauda epididymal small membranous vesicles lysed in 1% Brij O10, 10 mM Tris pH 7.4, 150 mM NaCl, 1 mM CaCl2, 1 mM MgCl2, 4°C; anti-CD9 immunoprecipitation on protein G-sepharose, normal mouse IgG as control; specific Coomassie bands of a non-reducing gel identified by LC-MS/MS
row,Molecule,binding
1,N-acetylated-alpha-linked acid dipeptidase 2 (predicted protein) (from UniProt F1MGS8),binds
2,DPP4_BOVIN Dipeptidyl peptidase 4/CD26 (from UniProt P81425 1-765),binds
3,CLUS_BOVIN Clusterin (from UniProt P17697 20-439),binds
4,"ENPP3_BOVIN Ectonucleotide pyrophosphatase/phosphodiesterase family member 3 (protein, UniProt P15396 1-874) MQSTLNLSTEEPVKRNTVKKYKIICIVLLILLVAVSLALGLVAGLRQQEEQGSCRKKCFDASHRGLEGCRCDVGCKGRGDCCWDFEDTCVQSTQIWTCNKFRCGETRLESSLCSCSDDCLQRKDCCADYKSVCQGETSWVDEDCSTAQQPQCPEGFDLPPVILFSMDGFRAEYLQTWSTLVPNINKLKTCGVHSQYLRPAYPTKTFPNHYTIVTGLYPESHGIIDNNMYDINLNKNFSLSSKEKDNPAWWQGQPIWLTAMYQGLKVGTYFWPGSDVAINGTFPSIYKIYNRSVTYEERIFTLLKWLDLPKAERPDFYTIYVEEPDSQGHNYGPVSAGVIQALQLVDKTFGLLMEGLKQRNLVNCVNIILLADHGMDQTYCDKLEYMADYFSSINFYMFEGPAPRIRTRNIPQDFFTFNSEEIVRNLSCRKPDQHFKPYLSPDLPKRLHFAKNVRIDKVNLLVDRQWQAVRNRAYSYCGGGNHGYDNEFKSMEAIFLAHGPSFKQKTEVEPFDNIEVYNLLCDLLHIQPAPNNGTHGSLNHLLKVPFYEPSHAEELSKFSVCGFTVPLPTDTLGCSCSRLQTNSDLERVNQMLDLTQDEITATEKLNLPFGRPRLIQKNKEPCLLYHREYVSGFDKTLRMPLWSSYTVPKPGDTSPLPPTVPDCLRADVRVAPSESQNCSFSLADKNITHGFLYPPANNRTSNSQYDALITSNLVPMYEAFKTMWNYFHSVLLVKYAMERNGVNVVSGPVFDYDYDGHFDAPDEIADYAVNTSVPIPTHYFVVLTSCKNQSQTPDACTGWLDVLPFVIPHRPTNVESCPENKSESLWVEERFNVHTARVRDVELLTGLDFYQEKAQPVSEILQLKTYLPVFETVI",binds
